The exact form of at least one protein or probe is not confirmed. Results from cells or extracts need not show a direct contact. At least one verdict rests on a figure or table, not on a statement of the authors.

Chains of the proteins cited; added tags and fusions are not shown. Lines headed by an entry give the natural chain unless they say otherwise; changes in a name come on top.
UniProt P54577: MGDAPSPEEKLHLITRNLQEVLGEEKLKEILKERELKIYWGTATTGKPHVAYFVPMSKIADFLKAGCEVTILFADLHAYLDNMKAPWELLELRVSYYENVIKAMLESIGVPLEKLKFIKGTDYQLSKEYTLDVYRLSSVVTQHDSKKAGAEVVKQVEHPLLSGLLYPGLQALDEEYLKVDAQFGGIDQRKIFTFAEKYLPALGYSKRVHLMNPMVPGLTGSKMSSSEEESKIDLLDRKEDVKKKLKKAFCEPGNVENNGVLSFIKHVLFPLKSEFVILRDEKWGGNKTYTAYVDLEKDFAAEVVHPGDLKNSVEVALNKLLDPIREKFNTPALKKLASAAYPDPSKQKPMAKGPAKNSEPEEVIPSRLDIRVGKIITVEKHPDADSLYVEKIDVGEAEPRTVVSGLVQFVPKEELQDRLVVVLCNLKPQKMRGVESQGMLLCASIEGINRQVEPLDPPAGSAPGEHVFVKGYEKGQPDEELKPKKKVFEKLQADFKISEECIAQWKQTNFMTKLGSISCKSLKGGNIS

The target of this data set is TyrRS-V5 in nuclear extract (UniProt P54577). Briefly: EMSA supershift. Conditions: anti-V5 antibody, protein in an extract. (A gel shift assay detects complexes by their altered migration in electrophoresis.)

For “ACTCTCTGCTGCTCCTCACTTTTTCCGG (double strand) [DNA (WT), TyrRS binding site on the TyrRS gene, 28 bp]”, the binding result is listed as “binds”.
